From ChEMBL document CHEMBL3988442, “University of Dundee, Small-Polar-MMV Screening Library” (2021).

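Viability assay of Plasmodium falciparum sporozoites; the read-out is not stated. The concentration is filed as 10 mM, unlikely as a test dose, so the dose is not known. Direction is inferred from retests: higher values go with lower viability. Strong results were mostly tested again. About 34,000 compounds were tested under these conditions; 0.84% (about 280) showed 50% or more at least once.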

The filed quantity is “Percent Effect” (%).
The controls that fix the scale are not given in the record; negative values are as filed.
This is an unselected part of the compounds tested.
Two or more numbers in one place are separate tests of the same structure; such repeats can differ widely.

{"compound": "CN(C)c1cc(CNC(=O)Nc2ccc(F)cc2)ccn1", "effect": 5.153}
{"compound": "CCc1nc(C(=O)N2CCN(C)CC2)nn1-c1ccccc1Cl", "effect": 3.142}
{"compound": "Cc1cc(Nc2cnccn2)nc(C2CCCN(CCO)C2)n1", "stereo": "centres unmarked", "effect": 18.55}
{"compound": "O=S(=O)(CC1CCCCO1)Nc1cnn(Cc2ccccc2)c1", "stereo": "centres unmarked", "effect": 11.6}
{"compound": "CN(Cc1ccco1)C(=O)CN1CCc2ccccc2C1", "effect": 13.49}
{"compound": "CCc1nc2ccccc2c(=O)n1CC1(O)CCN(C(=O)C(C)C)CC1", "effect": -1.766}
{"compound": "COc1cc(N2CCCC3(CCN(c4cccnc4)C3=O)C2)ncn1.O=C(O)C(F)(F)F", "stereo": "centres unmarked", "effect": 16.27}
{"compound": "Cn1cnc2c1C(COCC1CC1)CN(Cc1ccc3c(c1)OCO3)C2.O=C(O)C(F)(F)F.O=C(O)C(F)(F)F", "stereo": "centres unmarked", "effect": -16.91}
{"compound": "c1ccc(-c2nc(CN3CCCC3Cn3cncn3)co2)cc1", "stereo": "centres unmarked", "effect": -2.096}
{"compound": "CN(C(=O)CCOc1ccccc1)C1CCN(CC2CCOC2)CC1", "stereo": "centres unmarked", "effect": 3.047}
{"compound": "CS(=O)(=O)N1CCC(C(=O)NC(Cc2ccsc2)c2ccccn2)CC1", "stereo": "centres unmarked", "effect": -2.488}
{"compound": "COc1ncccc1CNC(=O)Nc1ccc(N(C)C)nc1", "effect": -1.739}
{"compound": "CC(C)c1n[nH]c(C2CN(C(=O)c3cc(Cl)c[nH]3)CCO2)n1", "stereo": "centres unmarked", "effect": -5.655}
{"compound": "CCc1nc(CN2CCCN(C(=O)c3cnc[nH]3)CC2)cs1", "effect": -1.253}
{"compound": "COCC(=O)NC(Cc1cc(N(C)C)nc(C2CC2)n1)c1ccccc1", "stereo": "centres unmarked", "effect": 13.19}
{"compound": "CC1(C2CCN(CC(N)=O)CC2)CN(Cc2ccccc2)C(=O)CO1", "stereo": "centres unmarked", "effect": 1.963}
{"compound": "COc1ccc(C[C@H]2CN(C(=O)c3cnoc3)CC[C@@H]2OC)cc1", "effect": 8.669}
{"compound": "O=C(COc1ccc2c(c1)CCC2)NS(=O)(=O)c1cncc(Br)c1", "effect": -0.6441}
{"compound": "O=C(c1ccc2[nH]nnc2c1)N1CCC(Nc2cccnn2)CC1", "effect": 3.383}
{"compound": "c1coc(-c2noc(CN3CCc4c(ncn4C4CC4)C3)n2)c1", "effect": "9.104 & 3.38"}
{"compound": "CN1CCN(C2CCN(Cc3nc(-c4ccoc4)no3)CC2)C1=O", "effect": 5.595}
{"compound": "CC(C(=O)N1CCN(CCOc2ccccc2)CC1)n1cc(Cl)cn1", "stereo": "centres unmarked", "effect": -17.4}
{"compound": "CNC(=O)C1(c2cnccn2)CCCN1C(=O)c1ccc(F)cc1", "stereo": "centres unmarked", "effect": -2.552}
{"compound": "Cc1cc(C)n(CC2CN(CC(=O)NC3CCCCC3)CCO2)n1", "stereo": "centres unmarked", "effect": 1.106}
{"compound": "CCN(CC)Cc1cc(=O)n2c(n1)CN(S(=O)(=O)C1CC1)CCC2.O=C(O)C(F)(F)F", "effect": 6.421}
{"compound": "COC(=O)COn1c(OC)nc2ccccc2c1=O", "effect": 8.265}
{"compound": "CC(c1cc(F)ccc1F)N(C)Cc1nc2c(cnn2C)c(=O)[nH]1", "stereo": "centres unmarked", "effect": 10.46}
{"compound": "Cn1ncc2c(=O)[nH]c(CN3CCC(Cc4ccccc4)CC3)nc21", "effect": 17.03}
{"compound": "CCN1CCCC1CNCc1cc2cc3c(cc2[nH]c1=O)OCCO3", "stereo": "centres unmarked", "effect": 14.32}
{"compound": "O=C(NCCCn1ccnc1)NCC(c1ccco1)N1CCCCC1", "stereo": "centres unmarked", "effect": 4.728}
{"compound": "COc1cccc(C(=O)N2CCCC(CNS(C)(=O)=O)C2)c1", "stereo": "centres unmarked", "effect": "-14.13 & -19.01 & 1.739"}
{"compound": "[H][C@@]12CCCO[C@]1([H])[C@@H](N(C)Cc1cncnc1)CN2C(=O)COC", "effect": 8.833}
{"compound": "Cc1nn(C)c(N2CCOCC2)c1CNCc1ccnc(N(C)C)c1", "effect": "-19.65 & -9.617 & -7.561"}
{"compound": "CN(C(=O)NCc1ccncc1)C1CCN(c2ccccc2)C1=O", "stereo": "centres unmarked", "effect": -0.8244}
{"compound": "O=C(O)C(F)(F)F.O=C(O)C(F)(F)F.[H][C@@]12CCCO[C@]1([H])[C@@H](Oc1ccccn1)CN2c1nnc(C)s1", "effect": "10.21 & 1.988"}
{"compound": "[H][C@@]12CC[C@H](Oc3ccccc3Cl)[C@]1([H])CN(C(=O)COCCOC)C2", "effect": 10.02}
{"compound": "CC(C)c1cc(C(=O)NCCn2nc3ccccn3c2=O)n[nH]1", "effect": -7.561}
{"compound": "Cc1ccc(Oc2ncccc2C(=O)N(C)CCCN(C)C)c(C)c1", "effect": -10.94}
{"compound": "O=C(NCCCn1cccn1)c1nc2ccccc2[nH]1", "effect": -3.52}
{"compound": "O=C(O)[C@@H]1OCC(=O)N(Cc2cccc(Cl)c2)[C@@H]1c1ccccc1", "effect": 1.255}
{"compound": "N#CC1(C(=O)N2CCCN(Cc3cscn3)CC2)CCCCC1", "effect": 13.86}
{"compound": "O=C(O)C(F)(F)F.O=C1COC2(CCN(C(=O)c3ccoc3)CC2)CN1Cc1ccccn1", "effect": -11.01}
{"compound": "CC(C)c1ccc(CN2C(=O)C3(CCNCC3)Nc3ccccc32)cc1", "effect": "37.27 & 33.64 & 34.03"}
{"compound": "O=c1c(-c2ccnc(N3CCCC[C@@H]3CO)n2)cnc2sccn12", "effect": -0.9314}
{"compound": "O=C(NC[C@]1(O)CN(Cc2ncccc2F)C[C@H]1O)c1cc[nH]n1", "effect": 13.57}
{"compound": "CCOc1ccc(C#N)cc1NCC(=O)NC(=O)NC", "effect": -0.3152}
{"compound": "COCC1CN(C(=O)Nc2cc(Cl)cc(Cl)c2)CCO1", "stereo": "centres unmarked", "effect": "-34.82 & -19.43 & -35.98"}
{"compound": "[H][C@]12CCC[C@@]1(COC)CN(C(=O)CCOC)C2", "effect": -6.25}
{"compound": "[H][C@]12CC[C@]([H])(CN(C3Cc4ccccc4C3)C1)N(C(=O)CO)C2", "effect": -2.307}

For reference, 5 entries once more:

{"compound": "CC(C)c1n[nH]c(C2CN(C(=O)c3cc(Cl)c[nH]3)CCO2)n1", "stereo": "centres unmarked", "effect": -5.655}
{"compound": "O=C(O)C(F)(F)F.O=C1COC2(CCN(C(=O)c3ccoc3)CC2)CN1Cc1ccccn1", "effect": -11.01}
{"compound": "Cn1cnc2c1C(COCC1CC1)CN(Cc1ccc3c(c1)OCO3)C2.O=C(O)C(F)(F)F.O=C(O)C(F)(F)F", "stereo": "centres unmarked", "effect": -16.91}
{"compound": "Cc1cc(C)n(CC2CN(CC(=O)NC3CCCCC3)CCO2)n1", "stereo": "centres unmarked", "effect": 1.106}
{"compound": "COc1ccc(C[C@H]2CN(C(=O)c3cnoc3)CC[C@@H]2OC)cc1", "effect": 8.669}